Our source for the binding values is PMC11237798.

No constants are given. Whether binding was seen depends on the method and setting. In cells and extracts the contact can be indirect. These calls come from enrichment with a bait or labelling near it, and not all partners need be listed. Where a sequence is shown, tags or fusion partners need not be part of it.

The target of the test is T1, Flag tagged PA0034 (two-component response regulator) (Pseudomonas aeruginosa PAO1) (UniProt P24908).
T1 sequence: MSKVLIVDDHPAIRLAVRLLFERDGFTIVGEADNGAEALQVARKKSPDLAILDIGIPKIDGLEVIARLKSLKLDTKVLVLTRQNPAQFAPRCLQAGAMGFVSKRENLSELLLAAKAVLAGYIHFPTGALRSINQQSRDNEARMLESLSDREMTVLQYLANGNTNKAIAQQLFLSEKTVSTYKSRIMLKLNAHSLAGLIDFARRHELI
Nature of the test: affinity purification with mass spectrometry; Flag-PA0034 expressed in the ΔPA0034 strain (empty vector strain as control); lysate with anti-Flag magnetic beads overnight at 4°C, washed thrice with PBST; gel bands analysed by LC-MS/MS.

In the case of “LadS (histidine kinase), endogenous (from UniProt Q9HX42) (enzyme)”, the binding entry is reported as “binds”.
As for “PA1458 (histidine kinase), endogenous (from UniProt G3XCT6) (enzyme)”, the binding result is on record as “binds”.

B1: PhoQ (histidine kinase), endogenous (enzyme, UniProt Q9I4F8 34-448)
chain: IALENTIEQRLAADVATLVSAARVEKGRLVMPEHLPVEEFNLPEAKVLGYIYDQNGDLLWRSTSAADESINYTPRYDGRGNEFHTTRDAKGEEFFVFDVEIDLLRGKQAAYSIVTMQSVSEFESLLKGFREQLYLWLGGALLVLLGLLWLGLTWGFRAMRGLSSELDQIESGERESLSEEHPRELLRLTHSLNRLLRSEHKQRERYRHSLGDLAHSLKTPLAVLQGVGDQLAEEPGNREQVRVLQGQIERMSQQIGYQLQRASLRKSGLVRHREQLAPLVETLCDALDKVYRDKRVSLQRDFSPSFSVPVERGALLELLGNLLENAYRLCLGRVRVGARLGPGYSELWVEDDGPGVPAEQRARIIRRGERADTQHPGQGIGLAVALDIIESYDGELSLDDSELGGACFRIRFATV
For B1, the binding entry is “binds”.
